In US20250361297A1, “ANTI- SIGLEC-15 BINDING MOLECULES AND METHODS OF USE” (ADAPTAM THERAPEUTICS, S.L., priority 2024, published 2025):
Results are given in words; binding and its absence hold for the method and conditions named. Some binding calls cover weakened binding; strength is not graded here.

Legend:
[1] = target: T1, recombinant Siglec-15 (bispecific antibody affinity assay) (Homo sapiens (Human)) (UniProt Q6ZMC9); assay: BLI on recombinant Siglec-15
T1 sequence: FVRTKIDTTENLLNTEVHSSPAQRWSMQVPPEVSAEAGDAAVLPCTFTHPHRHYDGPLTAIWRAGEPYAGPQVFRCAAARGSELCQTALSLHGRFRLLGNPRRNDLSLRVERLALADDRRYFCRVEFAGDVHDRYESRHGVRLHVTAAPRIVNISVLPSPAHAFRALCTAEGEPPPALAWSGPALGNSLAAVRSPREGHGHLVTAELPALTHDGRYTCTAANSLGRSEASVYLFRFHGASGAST

[2] = target: recombinant human Siglec-15-his protein (Bonopusbio) (human) (UniProt Q6ZMC9); assay: ELISA on coated recombinant human Siglec-15-his
[3] = target: truncated human Siglec-15 comprising only domain 2 (D2), expressed on HEK293T cells (human) (UniProt Q6ZMC9); assay: flow cytometry on HEK 293T cells expressing only D2
[4] = target: truncated human Siglec-15 comprising only domain 2 (D2), expressed on HEK293T cells (human) (UniProt Q6ZMC9); assay: flow cytometry (gMFI) on HEK 293T cells expressing only D2
[5] = target: truncated human Siglec-15 comprising only domain 2 (D2), expressed on HEK293T cells (human) (UniProt Q6ZMC9); assay: flow cytometry (fold change of mAb positive cells) on HEK 293T cells expressing only D2
[6] = target: recombinant human Siglec-15-his protein (Bonopusbio) (human) (UniProt Q6ZMC9); assay: ELISA, plate coated with recombinant human Siglec-15-his, antibody titrated up to about 200 nM, OD 450 nm
[7] = target: truncated human Siglec-15 comprising only domain 2 (D2), expressed on HEK293T cells (human) (UniProt Q6ZMC9); assay: flow cytometry, HEK 293T cells expressing only domain 2 of Siglec-15, fold change of ab+ cells relative to 2ry control
[8] = target: truncated human Siglec-15 comprising only domain 2 (D2), expressed on HEK293T cells (human) (UniProt Q6ZMC9); assay: flow cytometry, HEK 293T cells expressing only domain 2 of Siglec-15 (S15 D2) beside CTRL cells; 2ry = secondary antibody alone
[9] = target: recombinant human Siglec-15-his protein (Bonopusbio) (human) (UniProt Q6ZMC9); assay: ELISA, plate coated with 100 ng per well recombinant human Siglec-15 (supplier not named in Example 3), HRP anti-mouse IgG, OD450
[10] = target: recombinant human Siglec-15-his protein (Bonopusbio) (human) (UniProt Q6ZMC9); assay: ELISA, plate coated with 2 µg/ml human Siglec-15-his, antibody 3-fold dilutions from 198 nM, HRP goat anti-human IgG Fc, OD 450 nm
[11] = target: human Siglec-15, full length, expressed on cells (human) (UniProt Q6ZMC9); assay: flow cytometry, HEK293T cells expressing human Siglec-15, anti-human IgG-PE, MFI
[12] = target: recombinant human Siglec-15-his protein (Bonopusbio) (human) (UniProt Q6ZMC9); assay: ELISA on coated recombinant human Siglec-15-his (FIG. 15A)
[13] = target: recombinant human Siglec-15-his protein (Bonopusbio) (human) (UniProt Q6ZMC9); assay: ELISA, plate coated with 2 µg/ml human Siglec-15-his, antibody 3-fold dilutions from 198 nM, HRP goat anti-human IgG Fc, OD450

Measured: binding

B1: S15B1 (antibody, V domains shown)
VH: QVQLQQSGPELVKPGASVKISCKASGYAFSSSWMNWVKQRPGKGLEWIGRIYPGHGETNYNGKFKDKATVTADKSSSTTYMQLSSLTSEDSAVYFCARVDNSDPYYFDYWGQGTTLTVSS
VL: DIVLTQSPASLAVSLGQRATISCRASKSVSTSGYSYMHWYQQKPGQPPKLLIYLASNLESGVPARFSGSGSGTDFTLNIHPVEEEDAATYYCQHGRELPFTFGSGTKLEIK
not listed: [11] | [12] | [13]
binds: all other assays above

B2: S15B1-VH2 + VL2 (antibody, V domains shown)
VH: QVQLVQSGAEVKKPGASVKVSCKASGYAFSSSWMNWVRQAPGQGLEWIGRIYPGHGETNYNGKFKDRVTMTADTSTSTVYMELSSLRSEDTAVYFCARVDNSDPYYFDYWGQGTTVTVSS
VL: DIVLTQSPASLAVSPGQRATITCRASKSVSTSGYSYMHWYQQKPGQPPKLLIYLASNLESGVPARFSGSGSGTDFTLTINPVEAEDTATYYCQHGRELPFTFGGGTKLEIK
binds: [2] | [11] | [6]

B3: S15B1-VH3 + VL1 (antibody, V domains shown)
VH: QVQLVQSGAEVKKPGASVKVSCKASGYAFSSSWMNWVKQAPGQGLEWIGRIYPGHGETNYNGKFKDRATMTADTSTSTVYMELSSLRSEDTAVYFCARVDNSDPYYFDYWGQGTTVTVSS
VL: DIVLTQSPASLAVSPGQRATITCRASKSVSTSGYSYMHWYQQKPGQPPKLLIYLASNLESGVPARFSGSGSGTDFTLTINPVEAEDTANYYCQHGRELPFTFGGGTKLEIK
binds: [2] | [6]

B4: ZLA-1243-E01 (antibody, V domains shown)
VH: QVQLVQSGGGLVQPGRSLRLSCAASGFTFDDYAMHWVRQAPGKGLEWVSGISWNSGSIGYADSVKGRFTISRDNAKNSLYLQMNSLRAEDTALYYCAKGLWPSYDLDAFDIWGQGTMVTVSS
VL: QSALTQPASVSGSPGQSITLSCTGTSSDVGAYNFVSWYQQHPGTAPKLMIYEVSNRPSGVSDRFSGSKSGNTASLTISGLQAEDEADYYCSSYTSTIPPFVFGTGTKVTVL
binds: [12] | [13]

B5: S15B1-VH3 + VL2 (antibody, V domains shown)
VH: QVQLVQSGAEVKKPGASVKVSCKASGYAFSSSWMNWVKQAPGQGLEWIGRIYPGHGETNYNGKFKDRATMTADTSTSTVYMELSSLRSEDTAVYFCARVDNSDPYYFDYWGQGTTVTVSS
VL: DIVLTQSPASLAVSPGQRATITCRASKSVSTSGYSYMHWYQQKPGQPPKLLIYLASNLESGVPARFSGSGSGTDFTLTINPVEAEDTATYYCQHGRELPFTFGGGTKLEIK
binds: [2]
